From patent EP3085709A1 (Genor Biopharma Co., Ltd, dated 2016) come the findings set out here.

By UniProt entry, the sequences of proteins in these tests, tags left out. Where a name states a change or a piece, a line headed by the entry shows the natural chain unless it says otherwise.
UniProt O14788: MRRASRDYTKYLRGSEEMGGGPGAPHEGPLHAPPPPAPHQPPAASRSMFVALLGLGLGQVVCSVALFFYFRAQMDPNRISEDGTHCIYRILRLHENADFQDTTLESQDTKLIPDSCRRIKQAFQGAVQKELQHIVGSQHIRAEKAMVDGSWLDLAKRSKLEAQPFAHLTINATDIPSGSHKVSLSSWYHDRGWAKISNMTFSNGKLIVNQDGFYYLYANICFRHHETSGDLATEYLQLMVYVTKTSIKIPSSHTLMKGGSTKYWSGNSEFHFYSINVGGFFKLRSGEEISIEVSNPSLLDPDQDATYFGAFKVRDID

Results are given in words; binding and its absence hold for the method and conditions named. Some results given as binding are weak or reduced against the parent protein; the word gives no strength. Where a sequence is shown, tags or fusion partners need not be part of it.

For this test, the target named is T1, recombinant human RANKL (soluble, Gly136-Asp317, N-terminal 10 His, expressed in CHO cells) (human) (UniProt O14788).
T1 sequence: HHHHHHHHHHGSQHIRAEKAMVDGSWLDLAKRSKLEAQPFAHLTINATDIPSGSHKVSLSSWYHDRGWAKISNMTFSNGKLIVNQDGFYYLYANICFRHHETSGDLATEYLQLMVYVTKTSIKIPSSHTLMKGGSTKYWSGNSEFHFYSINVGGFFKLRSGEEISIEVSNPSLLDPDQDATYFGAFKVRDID
The test is described as follows: ELISA, hRANKL coated 1 µg/ml, scFv supernatant, anti-c-myc detection. (In general: In an ELISA, binding on a coated surface is turned into a signal by an enzyme label.)

B1: pFL249-L10 scFv clone (scFv, not shown: small tags and cut ends)
scFv: QVQLQQSGAELASPGASVKLSCKASGYTFTTYWLQWVKQRPGQGLEWIGAIYPGPGNTKYTQKFKDKATLTADKSASTAYMQLNSLTSEDSAVYYCARRGSRRGIAYWGQGTLVTVSAGGGGSGGGGSGGGGSNIVLTQSPASLSVSLGQRATISCRASESVDSYGRSFMHWYQQRPGQAPRLLIYLASNLESGVPARFSGSGSRTDFTLTISSVEAEDEATYYCQQDNEDPYTFGGGTKLEIK
B1: the binding result is listed as “binds”.

B2: pFL249-L37 scFv clone (scFv, not shown: small tags and cut ends)
scFv: QVQLQQSGAELASPGASVKLSCKASGYTFTTYWLQWVKQRPGQGLEWIGAIYPGPGNTKYTQKFKDKATLTADKSASTAYMQLNSLTSEDSAVYYCARRGSRRGIAYWGQGTLVTVSAGGGGSGGGGSGGGGSNIVLTQSPASLSVSLGQRATISCRASESVDSYGRSFMHWYQQKPGQAPKLLIYLASNLESGVPSRFSGSGSRTDFTLTISAVEAEDAATYYCQQDNEDPYTFGGGTKLEIK
For B2, the binding entry is given as “binds”.

B3: pFL249-L10u scFv clone (scFv, not shown: small tags and cut ends)
scFv: QVQLQQSGAELASPGASVKLSCKASGYTFTTYWLQWVKQRPGQGLEWIGAIYPGPGNTKYTQKFKDKATLTADKSASTAYMQLNSLTSEDSAVYYCARRGSRRGIAYWGQGTLVTVSAGGGGSGGGGSGGGGSNIVLTQSPASLSVSLGQRATISCRASESVDSYGRSFMHWYQQRPGQAPKLLIYLASNLESGVPARFSGSGSRTDFTLTISSVEAEDEATYYCQQDNEDPYTFGGGTKLEIK
As for B3, the binding entry was “binds”.

B4: pFL249-L37u scFv clone (scFv, not shown: small tags and cut ends)
scFv: QVQLQQSGAELASPGASVKLSCKASGYTFTTYWLQWVKQRPGQGLEWIGAIYPGPGNTKYTQKFKDKATLTADKSASTAYMQLNSLTSEDSAVYYCARRGSRRGIAYWGQGTLVTVSAGGGGSGGGGSGGGGSNIVLTQSPASLSVSLGQRATISCRASESVDSYGRSFMHWYQQKPGQAPKLLIYLASNLESGVPSRFSGSGSRTDFTLTISRVEAEDAATYYCQQDNEDPYTFGGGTKLEIK
Regarding B4, the binding result is “binds”.
